According to PMC12149670:
These are yes or no findings as the source states them, for the method shown. In cells and extracts the contact can be indirect. Here binding means that the protein was enriched with, or labelled near, the bait; the list need not be complete. One block for each binder: values may come before it.

By UniProt entry, the sequences of proteins in these tests, tags left out.
UniProt P56546: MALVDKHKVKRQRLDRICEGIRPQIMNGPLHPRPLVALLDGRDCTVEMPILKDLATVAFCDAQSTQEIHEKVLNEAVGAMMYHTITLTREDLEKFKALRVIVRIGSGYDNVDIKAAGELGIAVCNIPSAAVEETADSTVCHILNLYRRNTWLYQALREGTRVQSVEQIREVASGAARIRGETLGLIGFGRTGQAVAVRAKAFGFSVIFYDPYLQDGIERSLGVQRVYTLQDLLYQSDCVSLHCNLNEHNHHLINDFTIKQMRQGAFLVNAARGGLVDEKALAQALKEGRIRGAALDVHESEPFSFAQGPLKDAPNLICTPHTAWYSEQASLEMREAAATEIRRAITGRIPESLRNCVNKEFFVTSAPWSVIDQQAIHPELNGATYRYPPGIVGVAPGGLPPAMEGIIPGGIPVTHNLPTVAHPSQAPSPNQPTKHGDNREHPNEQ

Biological target: C-terminal binding protein 2 (CTBP2), endogenous in murine BMDMs (mouse (endogenous in BMDMs)) (UniProt P56546)
Test: affinity purification with mass spectrometry; ChIP-MS: BMDMs treated with LPS (100 ng/ml, 3 h) or vehicle, fixed with 2 mM DSG and 1% formaldehyde, sonicated chromatin precipitated with anti-CTBP2 (#61261; Active Motif) against an IgG control; washes with 140 mM and 500 mM NaCl buffers; enriched: fold change > 4 and Padj < 0.05; n = 3

- binding: binds
B1: ETV3 (protein, UniProt Q8R4Z4 1-513)
chain: MKAGCSIVEKPEGGGGYQFPDWAYKAESSPGSRQIQLWHFILELLQKEEFRHVIAWQQGEYGEFVIKDPDEVARLWGRRKCKPQMNYDKLSRALRYYYNKRILHKTKGKRFTYKFNFNKLVMPNYPFINIRSSGVVPQSAPPVPTASSRFHFPPLDSHSPTGDVQPGRFSASSLSASGPESGVTTDRKVEPSDLEDGSASDWHRGMDFMPSRNALGGGAVGHQKRKPDILLPLFTRPAMYPDPHSPFAISPVPGRGGVLNVPISPALSLTPTMFSYSPSPGLSPFTSSSCFSFNPEEMKHYLHSQACSVFNYHLSPRTFPRYPGLMVPPLQCQMHPEEPSQFSIKLQPPPAGRKNRERVESREEAVRGSVPASAPVPSRIKVEPATEKDPDSLRQSTQGKEEQTQEVDSMRSRTIEEGKGTGFAHPSPTWPSVSISTPSDEPLEGTEDSEDRSVREPGVPEKKEDALMPPKLRLKRRWNDDPEARELNKTGKFLWNGAGPQGLATTATAAADA

- binding: binds
B2: NFΚBIZ (protein, UniProt Q9EST8 1-728)
chain: MIVDKLLDDSRGGEGLLDAAGDCGLMTSPLNLAYFYGASPPSAPGAGDTGYLSAVPSAPGSPGSDSSDFSSTSSVSSCGAVESRPRGGARAERPQVEPHMGVGRQQRGPFQGVRVKNSVKELLLHIRSNKQKASGQPVDEFKTQSVNIEQLTDLKSAVSAVGKRKGPDPLSDGPVCKRPALLPSHFVTSPQTPTPGESMEDVRHSESKLDSSAALLQNIINIKNECNPVSLNTVQVSWMSPTVPQNSPRDQCQDFHGGQAFSPPQKYQPFQVSGSPQMMDQASMYQYSPQTQNMQQPPPLPPQQQHQQNYPHNSPLQFSPYSRMSQSPKYDSNLFDTHEPQFCTGQSFVSLLTGPGEPESLAVPVPAPTSIPPQTETQLQTFSLMPSNACEAVVGVHDVGSHSLGTSLSLQNIMGSPMNTTQLGKSFFQWQVEQEESKLANIPQDQFLARDGDGDTFLHIAVAQGRRALSYVLARKMNALHMLDIKEHNGQSAFQVAVAANQHLIVQDLVNLGAQVNTTDCWGRTPLHVCAEKGHSQVLQAIQKGAVRSNQFVDLEATNYDGLTPLHCAVVAHNAVVHELQRNRQSHSPEVQDLLLRNKSLVDTIKCLIQMGAAVEAKDRKSGRTALHLAAEEANLELIRLFLELPSCLSFVNAKAYNGNTALHVAASLQYRVTQLDAVRLLMRKGADPSTRNLENEQPVHLVPDGPVGEQIRRILKGKSIQQRAPPY

- binding: binds
B3: JUNB, endogenous in murine BMDMs (protein, UniProt P09450 1-344)
chain: MCTKMEQPFYHDDSYAAAGYGRSPGSLSLHDYKLLKPTLALNLADPYRGLKGPGARGPGPEGSGAGSYFSGQGSDTGASLKLASTELERLIVPNSNGVITTTPTPPGQYFYPRGGGSGGGTGGGVTEEQEGFADGFVKALDDLHKMNHVTPPNVSLGASGGPQAGPGGVYAGPEPPPVYTNLSSYSPASAPSGGSGTAVGTGSSYPTATISYLPHAPPFAGGHPAQLGLSRGASAFKEEPQTVPEARSRDATPPVSPINMEDQERIKVERKRLRNRLAATKCRKRKLERIARLEDKVKTLKAENAGLSSAAGLLREQVAQLKQKVMTHVSNGCQLLLGVKGHAF
